In paper doi:10.1101/2025.03.24.645050:
These are yes or no findings as the source states them, for the method shown. Some entries that bind do so weakly or less than the wild type.

By UniProt entry, the sequences of proteins in these tests, tags left out. Where a name states a change or a piece, a line headed by the entry shows the natural chain unless it says otherwise.
UniProt Q96SW2: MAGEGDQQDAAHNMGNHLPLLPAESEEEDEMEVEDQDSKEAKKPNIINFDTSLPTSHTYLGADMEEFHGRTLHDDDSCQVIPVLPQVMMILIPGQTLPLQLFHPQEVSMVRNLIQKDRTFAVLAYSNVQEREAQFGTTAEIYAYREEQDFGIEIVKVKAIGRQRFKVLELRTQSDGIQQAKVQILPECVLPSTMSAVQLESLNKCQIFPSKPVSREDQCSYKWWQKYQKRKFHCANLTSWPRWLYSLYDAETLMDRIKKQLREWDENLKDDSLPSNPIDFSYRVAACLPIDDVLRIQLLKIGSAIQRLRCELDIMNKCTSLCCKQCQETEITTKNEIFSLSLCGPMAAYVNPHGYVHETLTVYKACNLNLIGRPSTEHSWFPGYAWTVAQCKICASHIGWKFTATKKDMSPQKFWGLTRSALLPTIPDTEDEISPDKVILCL
UniProt Q16531: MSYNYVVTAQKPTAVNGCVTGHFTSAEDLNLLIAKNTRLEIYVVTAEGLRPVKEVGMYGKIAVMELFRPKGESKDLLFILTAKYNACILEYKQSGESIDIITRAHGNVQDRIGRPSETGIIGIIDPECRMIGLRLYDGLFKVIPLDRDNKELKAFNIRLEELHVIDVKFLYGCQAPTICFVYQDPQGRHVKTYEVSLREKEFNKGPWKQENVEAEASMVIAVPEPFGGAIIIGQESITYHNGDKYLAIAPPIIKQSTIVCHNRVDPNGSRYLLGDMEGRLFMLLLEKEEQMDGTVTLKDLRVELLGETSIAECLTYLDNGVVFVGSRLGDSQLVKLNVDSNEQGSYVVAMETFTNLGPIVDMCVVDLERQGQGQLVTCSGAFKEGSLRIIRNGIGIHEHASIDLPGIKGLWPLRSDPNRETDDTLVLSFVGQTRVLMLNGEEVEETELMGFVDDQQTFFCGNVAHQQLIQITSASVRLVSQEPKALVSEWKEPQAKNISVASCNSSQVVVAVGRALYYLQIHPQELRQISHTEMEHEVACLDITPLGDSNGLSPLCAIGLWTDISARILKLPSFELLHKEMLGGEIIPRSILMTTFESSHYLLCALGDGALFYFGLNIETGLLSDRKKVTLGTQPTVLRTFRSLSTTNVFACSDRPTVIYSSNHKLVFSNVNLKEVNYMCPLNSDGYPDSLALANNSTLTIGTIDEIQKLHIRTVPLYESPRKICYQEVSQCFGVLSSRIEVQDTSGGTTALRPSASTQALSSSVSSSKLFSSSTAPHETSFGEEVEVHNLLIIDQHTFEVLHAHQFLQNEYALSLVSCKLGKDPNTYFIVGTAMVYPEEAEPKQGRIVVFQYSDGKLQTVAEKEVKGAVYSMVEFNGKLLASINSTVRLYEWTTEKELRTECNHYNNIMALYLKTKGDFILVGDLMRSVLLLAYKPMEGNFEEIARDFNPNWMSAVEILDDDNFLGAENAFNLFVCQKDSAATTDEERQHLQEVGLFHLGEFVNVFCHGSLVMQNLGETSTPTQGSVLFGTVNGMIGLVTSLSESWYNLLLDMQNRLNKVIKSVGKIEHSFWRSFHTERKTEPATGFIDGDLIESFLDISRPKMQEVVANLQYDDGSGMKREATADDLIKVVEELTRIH
UniProt P15104: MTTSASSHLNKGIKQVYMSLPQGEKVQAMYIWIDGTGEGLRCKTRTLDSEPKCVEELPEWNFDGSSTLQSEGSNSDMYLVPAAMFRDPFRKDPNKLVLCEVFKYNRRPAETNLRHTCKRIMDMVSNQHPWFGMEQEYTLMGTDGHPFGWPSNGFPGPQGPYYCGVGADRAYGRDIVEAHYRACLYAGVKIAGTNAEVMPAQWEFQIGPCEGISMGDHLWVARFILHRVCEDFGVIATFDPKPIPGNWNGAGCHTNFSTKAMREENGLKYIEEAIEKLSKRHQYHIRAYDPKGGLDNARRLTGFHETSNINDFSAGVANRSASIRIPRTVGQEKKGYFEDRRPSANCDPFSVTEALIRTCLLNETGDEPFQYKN

Legend:
[1] = target: human CRBN-DDB1 (complex crystallised with PFQYKcN) (human) (UniProt Q96SW2+Q16531); experiment: crystal structure
His6-CRBN/DDB1 complex = His6-CRBN/DDB1 complex (UniProt Q96SW2); experiment: AlphaScreen or HTRF

binding [1] | binding (His6-CRBN/DDB1 complex) | Binder
binds |  | PFQYKN (C-terminal asparagine as cyclic imide (cN)) [synthetic GLUL C-terminal 6-mer PFQYKcN]
 | no binding | PFQYKA (peptide, UniProt P15104 368-373) [GLUL 6-mer with the C-terminal N replaced by alanine, incubated with PCMT1]
